Test results from PMC9527318.
No constants are given. Whether binding was seen depends on the method and setting. In cells and extracts the contact can be indirect. Some binding calls cover weakened binding; strength is not graded here.

Biological target: RelA/p65 (human (endogenous in EBV B cells)), Q04206
Assay: co-IP; lysates (RIPA buffer) of EBV B cells homozygous for the rs10499197-tagged non-risk TNFAIP3 haplotype, precleared with normal rabbit IgG and protein A/G beads, incubated with anti-RelA/p65 antibody for 16 h at 4°C; western blot with anti-RelA/p65 or anti-CEBPB antibody
Conditions: remark: other sources report otherwise

B1: CCAAT/enhancer-binding protein beta (CEBPB), P17676 1-345 (protein)
chain: MQRLVAWDPACLPLPPPPPAFKSMEVANFYYEADCLAAAYGGKAAPAAPPAARPGPRPPAGELGSIGDHERAIDFSPYLEPLGAPQAPAPATATDTFEAAPPAPAPAPASSGQHHDFLSDLFSDDYGGKNCKKPAEYGYVSLGRLGAAKGALHPGCFAPLHPPPPPPPPPAELKAEPGFEPADCKRKEEAGAPGGGAGMAAGFPYALRAYLGYQAVPSGSSGSLSTSSSSSPPGTPSPADAKAPPTACYAGAAPAPSQVKSKAKKTVDKHSDEYKIRRERNNIAVRKSRDKAKMRNLETQHKVLELTAENERLQKKVEQLSRELSTLRNLFKQLPEPLLASSGHC
binding: binds
